From the supplement of paper PMC12259267, “Disruption of the KLHL37–N-Myc complex restores N-Myc degradation and arrests neuroblastoma growth in mouse models” (The Journal of Clinical Investigation, 2025) come the findings set out here.

Molecules are shown by their SMILES. Some of the results follow. Single values are uncertain, as repeats are few or missing. Peptide text beside a SMILES is read from it. * marks the point of attachment. Cbz = O=C(OCc1ccccc1)*

The assay deals with SK-N-BE(2). Description: inhibition of N-Myc immunofluorescence signal per cell relative to control (fraction); higher = stronger N-Myc protein reduction. To be noted: 1 µM; 9 h.
As to `NC(=O)N1CCC(CC(=O)N2CCC([C@H]3c4ncc(Br)cc4CCc4cc(Cl)cc(Br)c43)CC2)CC1` [Lonafarnib], the “inhibition of N-Myc immunofluorescence signal per cell” value (“inhibition … per cell” for short) turned out to be 0.0697.
As to `Cc1nc2cccc(N)c2c(=O)n1C1CCC(=O)NC1=O` (centres undefined) [Avadomide], the “inhibition … per cell” value was -0.0885.
For `CC(=O)O/N=C1\C(=O)N(Cc2cc(Cl)ccc2Cl)c2ccc(Cl)cc21`, the “inhibition … per cell” value came out at 0.00874.
The result for `CC(=O)N[C@H]1[C@@H](OCc2ccccc2)O[C@H](CO)[C@H](O)[C@@H]1O` [Benzyl-α-GalNAc] reads -0.0343; that for `C#CCOc1cccc2c1C(=O)N(C1CCC(=O)NC1=O)C2=O` (centres undefined) [Thalidomide-propargyl], 0.0788; that for `O=C(O)CNC(=O)c1nc(Cl)c2ccccc2c1O`, -0.109.
For `Cc1cc(Cl)ccc1OCCCC(=O)NO` [Droxinostat], the “inhibition … per cell” value turned out to be 0.195.
The result for `O=C1CCC(N2Cc3cc(O)ccc3C2=O)C(=O)N1` (centres undefined) [Lenalidomide-OH] reads 0.122.
The result for `O=C(O)CNC(=O)c1ncc(-c2cccc(Cl)c2)cc1O` [Vadadustat] reads 0.0245; that for `CC(C)[C@H](NC(=O)OCc1ccccc1)C(=O)N[C@H](C=O)Cc1ccccc1` (Cbz-Val-Phe-aldehyde), 0.101.
The result for `O=[N+]([O-])c1ccc(S(=O)(=O)N2CCN(c3ccnc4cc(Cl)ccc34)CC2)c([N+](=O)[O-])c1` reads 0.13; that for `Nc1c(C(=O)c2ccccc2)sc2[nH]c(=O)c(C(=O)O)cc12`, 0.252; that for `C/C(=N\NC(=O)c1cccc(S(=O)(=O)N2CCOCC2)c1)c1cc(Cl)ccc1O`, 0.122.
As for `Cn1ncnc1[C@H]1c2n[nH]c(=O)c3cc(F)cc(c23)N[C@@H]1c1ccc(F)cc1` [Talazoparib], the “inhibition … per cell” value was found to be 0.101.
